Assay results as given in the supplement of paper PMC8728848.
Some of the results follow.

Legend:
Experiment in all cases: glycan array binding signal (z-score within array); higher = stronger binding
Conditions in all cases: glycan notation: IUPAC condensed, linker removed
[1] = biological target: Neu5Ac(a2-3)Gal(b1-3)[Fuc(a1-4)]GlcNAc
Method in brief: (§1)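 Glycan array data came from 3228 arrays in the Consortium for Functional Glycomics database, and only arrays with an available protein sequence were kept. Glycan names were put into IUPAC-condensed notation, and columns mapping to the same glycan were averaged. The binding signal is a within-array Z-score, averaged across arrays of one protein sequence run at different concentrations or buffers and across linkers. A negative Z-score can be read as non-binding.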

[2] = biological target: Neu5Ac(a2-3)Gal(b1-3)[Fuc(a1-4)]GlcNAc(b1-3)Gal(b1-4)[Fuc(a1-3)]GlcNAc
Method in brief: as §1

[3] = biological target: Neu5Ac(a2-3)Gal(b1-3)[Neu5Ac(a2-3)Gal(b1-4)]GlcNAc
Method in brief: as §1

[4] = biological target: Neu5Ac(a2-3)Gal(b1-3)[Neu5Ac(a2-6)]GalNAc
Method in brief: as §1

[5] = biological target: Neu5Ac(a2-3)Gal(b1-4)Glc
Method in brief: as §1

[6] = biological target: Neu5Ac(a2-3)Gal(b1-4)GlcNAc
Method in brief: as §1

[7] = biological target: Neu5Ac(a2-3)Gal(b1-4)GlcNAc(b1-2)Man(a1-3)[GlcNAc(b1-2)Man(b1-4)GlcNAc(b1-2)Man(a1-6)]Man(b1-4)GlcNAc(b1-4)GlcNAc
Method in brief: as §1

[8] = biological target: Neu5Ac(a2-3)Gal(b1-4)GlcNAc(b1-2)Man(a1-3)[Neu5Ac(a2-6)Gal(b1-4)GlcNAc(b1-2)Man(a1-6)]Man(b1-4)GlcNAc(b1-4)GlcNAc
Method in brief: as §1

[9] = biological target: Neu5Ac(a2-3)Gal(b1-4)GlcNAc(b1-3)Gal(b1-3)GlcNAc
Method in brief: as §1

[10] = biological target: Neu5Ac(a2-3)Gal(b1-4)GlcNAc(b1-3)Gal(b1-4)GlcNAc
Method in brief: as §1

[11] = biological target: Neu5Ac(a2-3)Gal(b1-4)GlcNAc(b1-3)Gal(b1-4)GlcNAc(b1-3)Gal(b1-4)GlcNAc
Method in brief: as §1

[12] = biological target: Neu5Ac(a2-3)Gal(b1-4)GlcNAc(b1-3)Gal(b1-4)[Fuc(a1-3)]GlcNAc
Method in brief: as §1

[13] = biological target: Neu5Ac(a2-3)Gal(b1-4)GlcNAc(b1-6)[Gal(b1-3)]GalNAc
Method in brief: as §1

[14] = biological target: Neu5Ac(a2-3)Gal(b1-4)GlcNAc(b1-6)[Neu5Ac(a2-3)Gal(b1-3)]GalNAc
Method in brief: as §1

[15] = biological target: Neu5Ac(a2-3)Gal(b1-4)GlcNAc6S
Method in brief: as §1

[16] = biological target: Neu5Ac(a2-3)Gal(b1-4)[Fuc(a1-3)]GlcNAc
Method in brief: as §1

[17] = biological target: Neu5Ac(a2-3)Gal(b1-4)[Fuc(a1-3)]GlcNAc(b1-3)Gal
Method in brief: as §1

[18] = biological target: Neu5Ac(a2-3)Gal(b1-4)[Fuc(a1-3)]GlcNAc(b1-3)Gal(b1-4)GlcNAc
Method in brief: as §1

[19] = biological target: Neu5Ac(a2-3)Gal(b1-4)[Fuc(a1-3)]GlcNAc(b1-3)Gal(b1-4)[Fuc(a1-3)]GlcNAc(b1-3)Gal(b1-4)[Fuc(a1-3)]GlcNAc
Method in brief: as §1

[20] = biological target: Neu5Ac(a2-3)Gal(b1-4)[Fuc(a1-3)]GlcNAc(b1-6)[Gal(b1-3)]GalNAc
Method in brief: as §1

[21] = biological target: Neu5Ac(a2-3)Gal(b1-4)[Fuc(a1-3)]GlcNAc6S
Method in brief: as §1

[22] = biological target: Neu5Ac(a2-3)Gal6S(b1-4)GlcNAc
Method in brief: as §1

[23] = biological target: Neu5Ac(a2-3)Gal6S(b1-4)[Fuc(a1-3)]GlcNAc
Method in brief: as §1

[24] = biological target: Neu5Ac(a2-3)GalNAc
Method in brief: as §1

[25] = biological target: Neu5Ac(a2-3)GalNAc(b1-4)GlcNAc
Method in brief: as §1

[26] = biological target: Neu5Ac(a2-3)[GalNAc(b1-4)]Gal(b1-4)Glc
Method in brief: as §1

[27] = biological target: Neu5Ac(a2-3)[GalNAc(b1-4)]Gal(b1-4)GlcNAc
Method in brief: as §1

[28] = biological target: Neu5Ac(a2-3)[Neu5Ac(a2-6)]GalNAc
Method in brief: as §1

[29] = biological target: Neu5Ac(a2-6)Gal
Method in brief: as §1

[30] = biological target: Neu5Ac(a2-6)Gal(b1-4)Glc
Method in brief: as §1

[31] = biological target: Neu5Ac(a2-6)Gal(b1-4)GlcNAc
Method in brief: as §1

[32] = biological target: Neu5Ac(a2-6)Gal(b1-4)GlcNAc(b1-2)Man(a1-3)[Gal(b1-4)GlcNAc(b1-2)Man(a1-6)]Man(b1-4)GlcNAc(b1-4)GlcNAc
Method in brief: as §1

[33] = biological target: Neu5Ac(a2-6)Gal(b1-4)GlcNAc(b1-2)Man(a1-3)[GlcNAc(b1-2)Man(a1-6)]Man(b1-4)GlcNAc(b1-4)GlcNAc
Method in brief: as §1

[34] = biological target: Neu5Ac(a2-6)Gal(b1-4)GlcNAc(b1-2)Man(a1-3)[GlcNAc(b1-2)Man(b1-4)GlcNAc(b1-2)Man(a1-6)]Man(b1-4)GlcNAc(b1-4)GlcNAc
Method in brief: as §1

[35] = biological target: Neu5Ac(a2-6)Gal(b1-4)GlcNAc(b1-2)Man(a1-3)[Neu5Ac(a2-6)Gal(b1-4)GlcNAc(b1-2)Man(a1-6)]Man(b1-4)GlcNAc(b1-4)GlcNAc
Method in brief: as §1

[36] = biological target: Neu5Ac(a2-6)Gal(b1-4)GlcNAc(b1-2)Man(a1-6)[Gal(b1-4)GlcNAc(b1-2)Man(a1-3)]Man(b1-4)GlcNAc(b1-4)GlcNAc
Method in brief: as §1

[37] = biological target: Neu5Ac(a2-6)Gal(b1-4)GlcNAc(b1-2)Man(a1-6)[GlcNAc(b1-2)Man(a1-3)]Man(b1-4)GlcNAc(b1-4)GlcNAc
Method in brief: as §1

[38] = biological target: Neu5Ac(a2-6)Gal(b1-4)GlcNAc(b1-3)Gal(b1-4)GlcNAc
Method in brief: as §1

[39] = biological target: Neu5Ac(a2-6)Gal(b1-4)GlcNAc(b1-3)Gal(b1-4)[Fuc(a1-3)]GlcNAc(b1-3)Gal(b1-4)[Fuc(a1-3)]GlcNAc
Method in brief: as §1

[40] = biological target: Neu5Ac(a2-6)Gal(b1-4)GlcNAc6S
Method in brief: as §1

[41] = biological target: Neu5Ac(a2-6)GalNAc
Method in brief: as §1

[42] = biological target: Neu5Ac(a2-6)GalNAc(b1-4)GlcNAc
Method in brief: as §1

[43] = biological target: Neu5Ac(a2-8)Neu5Ac
Method in brief: as §1

[44] = biological target: Neu5Ac(a2-8)Neu5Ac(a2-3)Gal(b1-4)Glc
Method in brief: as §1

[45] = biological target: Neu5Ac(a2-8)Neu5Ac(a2-3)[GalNAc(b1-4)]Gal(b1-4)Glc
Method in brief: as §1

[46] = biological target: Neu5Ac(a2-8)Neu5Ac(a2-8)Neu5Ac
Method in brief: as §1

[47] = biological target: Neu5Ac(a2-8)Neu5Ac(a2-8)Neu5Ac(a2-3)Gal(b1-4)Glc
Method in brief: as §1

[48] = biological target: Neu5Ac(a2-8)Neu5Ac(a2-8)Neu5Ac(a2-3)[GalNAc(b1-4)]Gal(b1-4)Glc
Method in brief: as §1

[49] = biological target: Neu5Ac(a2-8)Neu5Ac(a2-8)Neu5Ac(a2-8)Neu5Ac(a2-3)[GalNAc(b1-4)]Gal(b1-4)Glc
Method in brief: as §1

[50] = biological target: Neu5Ac(b2-6)Gal(b1-4)GlcNAc
Method in brief: as §1

[51] = biological target: Neu5Ac(b2-6)GalNAc
Method in brief: as §1

[52] = biological target: Neu5Ac9Ac(a2-6)Gal(b1-4)GlcNAc
Method in brief: as §1

[53] = biological target: Neu5Gc(a2-3)Gal(b1-3)GlcNAc
Method in brief: as §1

[54] = biological target: Neu5Gc(a2-3)Gal(b1-3)[Fuc(a1-4)]GlcNAc
Method in brief: as §1

[55] = biological target: Neu5Gc(a2-3)Gal(b1-4)Glc
Method in brief: as §1

[56] = biological target: Neu5Gc(a2-3)Gal(b1-4)GlcNAc
Method in brief: as §1

[57] = biological target: Neu5Gc(a2-3)Gal(b1-4)[Fuc(a1-3)]GlcNAc
Method in brief: as §1

[58] = biological target: Neu5Gc(a2-6)Gal(b1-4)GlcNAc
Method in brief: as §1

[59] = biological target: Neu5Gc(a2-6)GalNAc
Method in brief: as §1

[60] = biological target: Neu5Gc(b2-6)Gal(b1-4)GlcNAc
Method in brief: as §1

B1: CLC (Homo sapiens), Q9UBD9 (protein)
chain: MDLRAGDSWGMLACLCTVLWHLPAVPALNRTGDPGPGPSIQKTYDLTRYLEHQLRSLAGTYLNYLGPPFNEPDFNPPRLGAETLPRATVDLEVWRSLNDKLRLTQNYEAYSHLLCYLRGLNRQAATAELRRSLAHFCTSLQGLLGSIAGVMAALGYPLPQPLPGTEPTWTPGPAHSDFLQKMDDFWLLKELQTWLWRSAKDFNRLKKKMQPPAAAVTLHLGAHGF
glycan array binding signal (z-score) [1]: -0.63
glycan array binding signal (z-score) [2]: -0.381
glycan array binding signal (z-score) [3]: 0.655
glycan array binding signal (z-score) [4]: -0.09
glycan array binding signal (z-score) [5]: 0.101
glycan array binding signal (z-score) [6]: 0.402
glycan array binding signal (z-score) [7]: 1.14
glycan array binding signal (z-score) [8]: 0.098
glycan array binding signal (z-score) [9]: 0.852
glycan array binding signal (z-score) [10]: -0.262
glycan array binding signal (z-score) [11]: -0.322
glycan array binding signal (z-score) [12]: 1.71
glycan array binding signal (z-score) [13]: -0.301
glycan array binding signal (z-score) [14]: 0.384
glycan array binding signal (z-score) [15]: -0.118
glycan array binding signal (z-score) [16]: -0.565
glycan array binding signal (z-score) [17]: -0.741
glycan array binding signal (z-score) [18]: -0.089
glycan array binding signal (z-score) [19]: -0.485
glycan array binding signal (z-score) [20]: 0.17
glycan array binding signal (z-score) [21]: 0.883
glycan array binding signal (z-score) [22]: 0.033
glycan array binding signal (z-score) [23]: -0.518
glycan array binding signal (z-score) [24]: 0.032
glycan array binding signal (z-score) [25]: -1.14
glycan array binding signal (z-score) [26]: 0.02
glycan array binding signal (z-score) [27]: -0.181
glycan array binding signal (z-score) [28]: -0.302
glycan array binding signal (z-score) [29]: -0.927
glycan array binding signal (z-score) [30]: 1.07
glycan array binding signal (z-score) [31]: -0.707
glycan array binding signal (z-score) [32]: 0.808
glycan array binding signal (z-score) [33]: 0.497
glycan array binding signal (z-score) [34]: -0.823
glycan array binding signal (z-score) [35]: -0.433
glycan array binding signal (z-score) [36]: -0.583
glycan array binding signal (z-score) [37]: -0.629
glycan array binding signal (z-score) [38]: 0.57
glycan array binding signal (z-score) [39]: -0.072
glycan array binding signal (z-score) [40]: -0.346
glycan array binding signal (z-score) [41]: -0.432
glycan array binding signal (z-score) [42]: -0.738
glycan array binding signal (z-score) [43]: 0.749
glycan array binding signal (z-score) [44]: -0.101
glycan array binding signal (z-score) [45]: -0.628
glycan array binding signal (z-score) [46]: -0.155
glycan array binding signal (z-score) [47]: -0.846
glycan array binding signal (z-score) [48]: -0.035
glycan array binding signal (z-score) [49]: 0.298
glycan array binding signal (z-score) [50]: -0.799
glycan array binding signal (z-score) [51]: -0.297
glycan array binding signal (z-score) [52]: -0.336
glycan array binding signal (z-score) [53]: -0.229
glycan array binding signal (z-score) [54]: -0.279
glycan array binding signal (z-score) [55]: 2.45
glycan array binding signal (z-score) [56]: 0.802
glycan array binding signal (z-score) [57]: -0.195
glycan array binding signal (z-score) [58]: -0.822
glycan array binding signal (z-score) [59]: -0.089
glycan array binding signal (z-score) [60]: 0.062
